The other results are listed elsewhere or left out.

Among the data in publication PMC7819943, “Rice protein-binding microarrays: a tool to detect cis-acting elements near promoter regions in rice” are binding signal values, retold here.

In this experiment the target is T1, OsSMF1 (Oryza sativa, UniProt Q6ZLB0 1-436).
T1 sequence: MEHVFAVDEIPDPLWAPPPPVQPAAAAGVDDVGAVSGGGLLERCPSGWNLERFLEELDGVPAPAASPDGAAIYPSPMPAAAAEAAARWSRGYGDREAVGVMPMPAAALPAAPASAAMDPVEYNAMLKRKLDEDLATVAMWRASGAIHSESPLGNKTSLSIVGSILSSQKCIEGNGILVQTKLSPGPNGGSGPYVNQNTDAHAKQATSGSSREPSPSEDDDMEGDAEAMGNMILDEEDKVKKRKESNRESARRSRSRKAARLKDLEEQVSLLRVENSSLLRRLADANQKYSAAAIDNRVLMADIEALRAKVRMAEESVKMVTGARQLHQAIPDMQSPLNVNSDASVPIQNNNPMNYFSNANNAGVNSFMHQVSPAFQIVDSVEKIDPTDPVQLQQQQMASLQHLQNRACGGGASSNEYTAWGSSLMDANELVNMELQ
Put plainly: protein-binding microarray (RPBM); PBS, 2% BSA, 51.3 ng/ul salmon testes DNA, 50 uM zinc acetate, 200 nM TF, 25 C, 1 h; high values mean tight binding. The note with it: protein: recombinant; tags: N-terminal polyhistidine and DsRed monomer fusion (pET32a); chain copies: 2; label: CyDye5-dUTP incorporated in the synthesized complementary strand; 3' TTTTT single-stranded linker to array surface; dsDNA, one strand shown. Summed up: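 Binding signal is defined as the fluorescence intensity of each feature in arbitrary units, read on an Axon 4000B scanner. Transcription factors with N-terminal polyhistidine and DsRed fusions came from E. coli BL21-CodonPlus and were purified on Ni–NTA. They were incubated at 200 nM for 1 h at 25 °C on a custom Agilent array that had been made double-stranded with Cy5-dUTP, with 50 µM zinc acetate present, and the array was washed.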
As for “ATAGGACCTATGACTACAACTATCTCTCGGTTGTCACGAACGGAGTCACCTAGTGCAG”, the binding signal is 3690 fluorescence intensity (a.u.).

On to “ATATCCATGGACCGGATCGCTGACACGTGGCGTACCACGTCGGAGTCACCTAGTGCAG”, for which the binding signal is 18100 fluorescence intensity (a.u.).

As for “GTGTGACTCATGCTTTCTCCAGCCCAGCCCAGCCCAGCCCCGGAGTCACCTAGTGCAG”, the binding signal was 8380 fluorescence intensity (a.u.).

Take “TGTGATGTGGGCATGCGTGTGCGCACGTGTTCTATTGGTGCGGAGTCACCTAGTGCAG”: the binding signal is 17600 fluorescence intensity (a.u.).

Consider “GCTCGCCGAGTCAGCGTTTGAGCTCGTTAGTCTTAACGATCGGAGTCACCTAGTGCAG”, for which the binding signal was 5390 fluorescence intensity (a.u.).

As to “ACTTCTACTCAATTACACCTCATCCTTGCATACAAACAAACGGAGTCACCTAGTGCAG”, the binding signal is 3650 fluorescence intensity (a.u.).

In the case of “TTCAAGAAACATTATGGTCAGTTGACACGGCTCTATCGCACGGAGTCACCTAGTGCAG”, the binding signal was 3280 fluorescence intensity (a.u.).

For “ATTTCCTTTTGTTGCTGTGCCACGCCACCCAACCCAACCCCGGAGTCACCTAGTGCAG”, the binding signal is 7360 fluorescence intensity (a.u.).

“AGCTGACTCCCTCGATGGTGACAGGTCTGAAGAAGCTTGGCGGAGTCACCTAGTGCAG”: the binding signal is 3250 fluorescence intensity (a.u.).

Take “TATGCGCGCAGAGTTTGCAAGGCCAGGTCATCCATGCTCGCGGAGTCACCTAGTGCAG”: the binding signal is 3810 fluorescence intensity (a.u.).

“CGCTCCCATCGGCGCACGCGTCCACCCCGGCCGCTCTCCTCGGAGTCACCTAGTGCAG”: the binding signal is 3450 fluorescence intensity (a.u.).

For the sequence “TCTCTCTCCCTCTTCTGGTTTGGTTTGTTGCTGGCCCTAGCGGAGTCACCTAGTGCAG”, the binding signal was 27200 fluorescence intensity (a.u.).

Take “CGCGCTCGCCCGTCGTCGCTCCGCTGCCACATGGGCCCGCCGGAGTCACCTAGTGCAG”: the binding signal was 4050 fluorescence intensity (a.u.).

Consider “TGGTGCACCGATAGTCCGATCTTGATGACACATGTGCACGCGGAGTCACCTAGTGCAG”, for which the binding signal is 4860 fluorescence intensity (a.u.).

“GTCGTTGTCGTTGGATGTATCGCCACGCATTGACGCATCCCGGAGTCACCTAGTGCAG”: the binding signal is 5430 fluorescence intensity (a.u.).

As for “TCTCAGCCACATGGGCCACGGCAGGTGGGGCCCACCCGCACGGAGTCACCTAGTGCAG”, the binding signal was 3260 fluorescence intensity (a.u.).

On to “GTTGAGGAACCTTCGGTGAACTTATTCCCAAGGAAAAGCACGGAGTCACCTAGTGCAG”, for which the binding signal is 23200 fluorescence intensity (a.u.).

As to “CCTGATCGTACGGCTGATCTGGCACAGCATTACAAACTTGCGGAGTCACCTAGTGCAG”, the binding signal is 3980 fluorescence intensity (a.u.).

On to “CCCATCCACCCACACGTGTCACCCCTCTCCCCGCCTATATCGGAGTCACCTAGTGCAG”, for which the binding signal was 13900 fluorescence intensity (a.u.).

On to “TGCCCTCTGCATGTCACGTCGGATATACGGACACACATTTCGGAGTCACCTAGTGCAG”, for which the binding signal is 3210 fluorescence intensity (a.u.).

In the case of “CATTTGTGGCAGCAACCTATATATATTTTCAGTTTCTGACCGGAGTCACCTAGTGCAG”, the binding signal was 29600 fluorescence intensity (a.u.).

Regarding “GCTCCGACGTGTAACTGTCACCGGGCCCAATAATTCGTGGCGGAGTCACCTAGTGCAG”, the binding signal was 5230 fluorescence intensity (a.u.).

Turning to “GTGAGTTCGTGACTTGTTGCCTGGTGGCCCTGGTCACAGTCGGAGTCACCTAGTGCAG”, the binding signal was 4010 fluorescence intensity (a.u.).

With “CCAGTCCACCACATACTACAGTGTCAGCGTACGCGTCGTACGGAGTCACCTAGTGCAG”, the binding signal is 4590 fluorescence intensity (a.u.).

Turning to “GAGGAAGCCGAACGGTTTTGCTACCCACACGACACGGAGGCGGAGTCACCTAGTGCAG”, the binding signal is 3720 fluorescence intensity (a.u.).

On to “ATGTCTAATGCCATGTAAGTTTTGGAGGAAACCTAACCTGCGGAGTCACCTAGTGCAG”, for which the binding signal is 3660 fluorescence intensity (a.u.).

Consider “CACGCGCCTTTAGCTCGCCACCAGCGTGGCACGCGGGAGCCGGAGTCACCTAGTGCAG”, for which the binding signal is 5220 fluorescence intensity (a.u.).

Take “CGTCCACATTTAATACTCTATGTATGTGTCCAAACATTTGCGGAGTCACCTAGTGCAG”: the binding signal was 5120 fluorescence intensity (a.u.).

In the case of “CGTGACGCGCAGCTCCCTGCAGCCGACCTGGCCACCCACACGGAGTCACCTAGTGCAG”, the binding signal is 3500 fluorescence intensity (a.u.).

Consider “ACAGTCTAAAATGATACATATTTGTGACTCGAGGGAGTATCGGAGTCACCTAGTGCAG”, for which the binding signal was 4110 fluorescence intensity (a.u.).

Turning to “ATGGTAATTGAATTCTGCCATGATACAAACAGAAAGAAACCGGAGTCACCTAGTGCAG”, the binding signal was 4760 fluorescence intensity (a.u.).

In the case of “ACCCCATCCACCGTACACGTGTCCACATCTACGGCCCAGACGGAGTCACCTAGTGCAG”, the binding signal was 17200 fluorescence intensity (a.u.).

As for “GCCGCACGAATCGTAAAGGCTTTCTCTGCTCCTCTTGCTCCGGAGTCACCTAGTGCAG”, the binding signal was 31000 fluorescence intensity (a.u.).

With “GCTCCTCCGCTCCTTGCGCCATCTCGCGGCTGAACAGGGGCGGAGTCACCTAGTGCAG”, the binding signal was 3400 fluorescence intensity (a.u.).

With “AAATGTAGCGTCAAGTAACACGTGTATTCACATTTACGATCGGAGTCACCTAGTGCAG”, the binding signal was 7750 fluorescence intensity (a.u.).

In the case of “TGCTATGGGCCAACTTACACATCTTCACACATTGCTTGGTCGGAGTCACCTAGTGCAG”, the binding signal was 4380 fluorescence intensity (a.u.).

Regarding “GTAAACTTCCATCATCAAACCAGCACACGTACATATTAGGCGGAGTCACCTAGTGCAG”, the binding signal was 3420 fluorescence intensity (a.u.).

For the sequence “GCGAACCCTCGATGAGCTGACACCCTCCTCATCCTCGCCGCGGAGTCACCTAGTGCAG”, the binding signal was 3560 fluorescence intensity (a.u.).

As for “GTTGCGGGGTGGGTGGTGGCGTTGCGGGAGGAGGAGGGAGCGGAGTCACCTAGTGCAG”, the binding signal is 6560 fluorescence intensity (a.u.).

Consider “CTGTCATCGCCACTGTCATGCCATCATCGTCATTGTGCCTCGGAGTCACCTAGTGCAG”, for which the binding signal was 6280 fluorescence intensity (a.u.).

As for “ATTCCTGGACGTGACAATATGAAACAGATCATGATTCATGCGGAGTCACCTAGTGCAG”, the binding signal is 3510 fluorescence intensity (a.u.).

As for “GAGAAATGAACGTCCGAGATTCGTCCACGTCACTATGAGTCGGAGTCACCTAGTGCAG”, the binding signal is 26300 fluorescence intensity (a.u.).
